Article PMC4510971
Results are given in words; binding and its absence hold for the method and conditions named. Some binding calls cover weakened binding; strength is not graded here.

The chains behind the UniProt entries cited, without tags or fusion partners. Where a name states a change or a piece, a line headed by the entry shows the natural chain unless it says otherwise. A line that says so, or that is headed by a name, gives the form on record, which may keep a tag or linker. Residues count along the entry.
UniProt Q9NPG3: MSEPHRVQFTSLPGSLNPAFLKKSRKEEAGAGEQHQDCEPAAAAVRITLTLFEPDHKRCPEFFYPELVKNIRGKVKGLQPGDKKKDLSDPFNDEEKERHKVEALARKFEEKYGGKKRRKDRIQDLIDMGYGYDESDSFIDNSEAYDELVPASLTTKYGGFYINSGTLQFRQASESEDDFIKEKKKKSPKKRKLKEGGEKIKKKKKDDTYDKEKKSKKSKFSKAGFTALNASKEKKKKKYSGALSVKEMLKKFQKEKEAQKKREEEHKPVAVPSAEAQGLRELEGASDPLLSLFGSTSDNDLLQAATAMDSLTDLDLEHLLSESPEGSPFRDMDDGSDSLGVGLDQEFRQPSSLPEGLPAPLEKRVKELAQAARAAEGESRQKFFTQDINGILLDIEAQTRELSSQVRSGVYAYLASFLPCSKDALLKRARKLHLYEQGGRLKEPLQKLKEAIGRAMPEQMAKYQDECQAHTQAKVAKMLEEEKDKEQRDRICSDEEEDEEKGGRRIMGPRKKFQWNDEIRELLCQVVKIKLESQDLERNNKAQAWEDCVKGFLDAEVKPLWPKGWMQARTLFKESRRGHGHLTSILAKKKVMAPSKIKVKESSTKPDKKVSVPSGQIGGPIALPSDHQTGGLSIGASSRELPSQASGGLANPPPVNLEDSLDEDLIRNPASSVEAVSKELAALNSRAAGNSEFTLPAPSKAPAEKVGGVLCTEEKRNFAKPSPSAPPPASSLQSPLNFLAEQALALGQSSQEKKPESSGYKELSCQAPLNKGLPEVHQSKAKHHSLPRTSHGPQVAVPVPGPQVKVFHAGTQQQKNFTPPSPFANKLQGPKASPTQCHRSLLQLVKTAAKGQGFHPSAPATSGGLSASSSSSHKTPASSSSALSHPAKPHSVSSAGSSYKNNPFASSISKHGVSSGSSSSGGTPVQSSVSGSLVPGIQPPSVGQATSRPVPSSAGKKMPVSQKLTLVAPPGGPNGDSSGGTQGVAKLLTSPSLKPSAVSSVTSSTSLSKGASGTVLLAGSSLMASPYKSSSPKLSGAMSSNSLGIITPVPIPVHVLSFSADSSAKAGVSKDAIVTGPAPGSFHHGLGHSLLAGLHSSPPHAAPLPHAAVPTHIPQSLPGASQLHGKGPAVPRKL
GST-UBN1(41–175): residues 41-175 of Q9NPG3
UBN1(FL) FID138-140AAA (Q9NPG3, form named): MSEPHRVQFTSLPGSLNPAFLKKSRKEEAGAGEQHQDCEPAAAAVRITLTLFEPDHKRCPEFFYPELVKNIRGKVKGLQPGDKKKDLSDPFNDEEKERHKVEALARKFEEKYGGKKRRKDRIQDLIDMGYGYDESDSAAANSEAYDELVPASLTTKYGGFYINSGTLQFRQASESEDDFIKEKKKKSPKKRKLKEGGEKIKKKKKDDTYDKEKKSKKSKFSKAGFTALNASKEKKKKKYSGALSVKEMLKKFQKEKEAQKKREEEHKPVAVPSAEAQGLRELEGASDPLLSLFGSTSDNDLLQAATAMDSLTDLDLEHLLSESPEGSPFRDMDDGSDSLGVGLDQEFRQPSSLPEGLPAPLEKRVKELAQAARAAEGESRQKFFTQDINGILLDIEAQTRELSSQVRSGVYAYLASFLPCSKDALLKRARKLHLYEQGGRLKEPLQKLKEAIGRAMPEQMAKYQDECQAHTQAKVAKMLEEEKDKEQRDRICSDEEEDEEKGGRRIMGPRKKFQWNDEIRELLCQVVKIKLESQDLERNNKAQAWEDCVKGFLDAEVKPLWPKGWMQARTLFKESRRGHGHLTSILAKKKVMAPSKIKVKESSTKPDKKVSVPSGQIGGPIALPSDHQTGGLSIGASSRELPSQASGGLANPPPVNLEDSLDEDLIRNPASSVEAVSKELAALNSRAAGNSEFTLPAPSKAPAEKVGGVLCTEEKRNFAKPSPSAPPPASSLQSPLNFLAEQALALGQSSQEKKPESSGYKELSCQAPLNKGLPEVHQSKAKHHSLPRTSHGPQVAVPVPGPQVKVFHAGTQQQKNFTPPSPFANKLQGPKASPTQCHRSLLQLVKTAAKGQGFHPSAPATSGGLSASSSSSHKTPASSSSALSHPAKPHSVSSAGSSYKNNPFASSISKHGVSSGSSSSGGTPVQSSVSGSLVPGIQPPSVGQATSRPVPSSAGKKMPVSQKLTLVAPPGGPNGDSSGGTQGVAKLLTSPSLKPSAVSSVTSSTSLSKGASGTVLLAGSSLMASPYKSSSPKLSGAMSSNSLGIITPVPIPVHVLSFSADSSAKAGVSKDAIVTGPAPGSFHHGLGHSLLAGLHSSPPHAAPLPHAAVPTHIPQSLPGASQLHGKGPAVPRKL
UniProt P54198: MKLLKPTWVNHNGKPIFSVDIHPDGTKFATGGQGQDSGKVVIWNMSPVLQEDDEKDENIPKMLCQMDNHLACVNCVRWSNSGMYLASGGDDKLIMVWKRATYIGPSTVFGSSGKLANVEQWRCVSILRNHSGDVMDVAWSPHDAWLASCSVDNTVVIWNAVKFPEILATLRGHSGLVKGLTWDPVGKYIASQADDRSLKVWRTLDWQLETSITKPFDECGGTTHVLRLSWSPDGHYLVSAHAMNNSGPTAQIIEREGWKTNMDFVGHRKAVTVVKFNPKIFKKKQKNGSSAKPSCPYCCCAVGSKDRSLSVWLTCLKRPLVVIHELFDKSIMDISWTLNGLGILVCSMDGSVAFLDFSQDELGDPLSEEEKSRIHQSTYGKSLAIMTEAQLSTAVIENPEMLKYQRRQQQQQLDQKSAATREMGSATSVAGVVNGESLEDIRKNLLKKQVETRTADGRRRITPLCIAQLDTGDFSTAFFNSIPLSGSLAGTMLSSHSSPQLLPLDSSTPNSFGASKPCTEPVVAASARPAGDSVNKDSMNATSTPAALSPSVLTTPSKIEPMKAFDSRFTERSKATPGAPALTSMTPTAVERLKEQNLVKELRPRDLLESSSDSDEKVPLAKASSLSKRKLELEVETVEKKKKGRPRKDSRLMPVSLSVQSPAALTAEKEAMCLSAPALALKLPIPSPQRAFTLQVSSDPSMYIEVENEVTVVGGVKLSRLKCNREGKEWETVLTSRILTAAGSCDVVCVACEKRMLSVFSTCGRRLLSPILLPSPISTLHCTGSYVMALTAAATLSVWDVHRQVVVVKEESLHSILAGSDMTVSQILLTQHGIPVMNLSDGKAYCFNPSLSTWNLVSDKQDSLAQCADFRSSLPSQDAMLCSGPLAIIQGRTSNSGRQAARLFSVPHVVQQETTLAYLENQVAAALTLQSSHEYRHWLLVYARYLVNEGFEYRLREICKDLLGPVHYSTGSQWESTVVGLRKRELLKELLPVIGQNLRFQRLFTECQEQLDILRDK

Experiments:
GST-UBN1(41–175) (human) = GST-UBN1(41–175) (human) (UniProt Q9NPG3); experiment: co-purification on glutathione agarose; co-expressed in Sf9; lysate in PBS bound to glutathione agarose through GST-UBN1(41–175), eluted, ion exchange
HIRA-FLAG(FL) (human) = HIRA-FLAG(FL) (human) (UniProt P54198); experiment: co-purification on ANTI-FLAG M2 affinity gel; co-expressed in Sf9; lysate in 20 mM Tris pH 8.0, 500 mM NaCl bound to the gel through HIRA-FLAG, washed with 60 column volumes

Row | binding (GST-UBN1(41–175) (human)) | binding (HIRA-FLAG(FL) (human)) | Substance
1 | binds |  | HIRA(1–405) (from UniProt P54198 1-405) (domain or fragment)
2 |  | binds | UBN1(FL) (from UniProt Q9NPG3 1-1134)
3 |  | binds | UBN1(FL) FID138-140AAA (from UniProt Q9NPG3 1-1134)
